Laboratory results published in PMC9834230, “The HAPSTR2 retrogene buffers stress signaling and resilience in mammals” (Nature Communications, 2023).
Where a chain is given by its changes, count along the chain named. Results are given in words; binding and its absence hold for the method and conditions named. Binding seen in cells or lysates may run through a third protein. Some results given as binding are weak or reduced against the parent protein; the word gives no strength. Where a sequence is shown, tags or fusion partners need not be part of it. One block for each molecule: values may come before it.

The chains behind the UniProt entries cited, without tags or fusion partners.
UniProt Q7Z6Z7: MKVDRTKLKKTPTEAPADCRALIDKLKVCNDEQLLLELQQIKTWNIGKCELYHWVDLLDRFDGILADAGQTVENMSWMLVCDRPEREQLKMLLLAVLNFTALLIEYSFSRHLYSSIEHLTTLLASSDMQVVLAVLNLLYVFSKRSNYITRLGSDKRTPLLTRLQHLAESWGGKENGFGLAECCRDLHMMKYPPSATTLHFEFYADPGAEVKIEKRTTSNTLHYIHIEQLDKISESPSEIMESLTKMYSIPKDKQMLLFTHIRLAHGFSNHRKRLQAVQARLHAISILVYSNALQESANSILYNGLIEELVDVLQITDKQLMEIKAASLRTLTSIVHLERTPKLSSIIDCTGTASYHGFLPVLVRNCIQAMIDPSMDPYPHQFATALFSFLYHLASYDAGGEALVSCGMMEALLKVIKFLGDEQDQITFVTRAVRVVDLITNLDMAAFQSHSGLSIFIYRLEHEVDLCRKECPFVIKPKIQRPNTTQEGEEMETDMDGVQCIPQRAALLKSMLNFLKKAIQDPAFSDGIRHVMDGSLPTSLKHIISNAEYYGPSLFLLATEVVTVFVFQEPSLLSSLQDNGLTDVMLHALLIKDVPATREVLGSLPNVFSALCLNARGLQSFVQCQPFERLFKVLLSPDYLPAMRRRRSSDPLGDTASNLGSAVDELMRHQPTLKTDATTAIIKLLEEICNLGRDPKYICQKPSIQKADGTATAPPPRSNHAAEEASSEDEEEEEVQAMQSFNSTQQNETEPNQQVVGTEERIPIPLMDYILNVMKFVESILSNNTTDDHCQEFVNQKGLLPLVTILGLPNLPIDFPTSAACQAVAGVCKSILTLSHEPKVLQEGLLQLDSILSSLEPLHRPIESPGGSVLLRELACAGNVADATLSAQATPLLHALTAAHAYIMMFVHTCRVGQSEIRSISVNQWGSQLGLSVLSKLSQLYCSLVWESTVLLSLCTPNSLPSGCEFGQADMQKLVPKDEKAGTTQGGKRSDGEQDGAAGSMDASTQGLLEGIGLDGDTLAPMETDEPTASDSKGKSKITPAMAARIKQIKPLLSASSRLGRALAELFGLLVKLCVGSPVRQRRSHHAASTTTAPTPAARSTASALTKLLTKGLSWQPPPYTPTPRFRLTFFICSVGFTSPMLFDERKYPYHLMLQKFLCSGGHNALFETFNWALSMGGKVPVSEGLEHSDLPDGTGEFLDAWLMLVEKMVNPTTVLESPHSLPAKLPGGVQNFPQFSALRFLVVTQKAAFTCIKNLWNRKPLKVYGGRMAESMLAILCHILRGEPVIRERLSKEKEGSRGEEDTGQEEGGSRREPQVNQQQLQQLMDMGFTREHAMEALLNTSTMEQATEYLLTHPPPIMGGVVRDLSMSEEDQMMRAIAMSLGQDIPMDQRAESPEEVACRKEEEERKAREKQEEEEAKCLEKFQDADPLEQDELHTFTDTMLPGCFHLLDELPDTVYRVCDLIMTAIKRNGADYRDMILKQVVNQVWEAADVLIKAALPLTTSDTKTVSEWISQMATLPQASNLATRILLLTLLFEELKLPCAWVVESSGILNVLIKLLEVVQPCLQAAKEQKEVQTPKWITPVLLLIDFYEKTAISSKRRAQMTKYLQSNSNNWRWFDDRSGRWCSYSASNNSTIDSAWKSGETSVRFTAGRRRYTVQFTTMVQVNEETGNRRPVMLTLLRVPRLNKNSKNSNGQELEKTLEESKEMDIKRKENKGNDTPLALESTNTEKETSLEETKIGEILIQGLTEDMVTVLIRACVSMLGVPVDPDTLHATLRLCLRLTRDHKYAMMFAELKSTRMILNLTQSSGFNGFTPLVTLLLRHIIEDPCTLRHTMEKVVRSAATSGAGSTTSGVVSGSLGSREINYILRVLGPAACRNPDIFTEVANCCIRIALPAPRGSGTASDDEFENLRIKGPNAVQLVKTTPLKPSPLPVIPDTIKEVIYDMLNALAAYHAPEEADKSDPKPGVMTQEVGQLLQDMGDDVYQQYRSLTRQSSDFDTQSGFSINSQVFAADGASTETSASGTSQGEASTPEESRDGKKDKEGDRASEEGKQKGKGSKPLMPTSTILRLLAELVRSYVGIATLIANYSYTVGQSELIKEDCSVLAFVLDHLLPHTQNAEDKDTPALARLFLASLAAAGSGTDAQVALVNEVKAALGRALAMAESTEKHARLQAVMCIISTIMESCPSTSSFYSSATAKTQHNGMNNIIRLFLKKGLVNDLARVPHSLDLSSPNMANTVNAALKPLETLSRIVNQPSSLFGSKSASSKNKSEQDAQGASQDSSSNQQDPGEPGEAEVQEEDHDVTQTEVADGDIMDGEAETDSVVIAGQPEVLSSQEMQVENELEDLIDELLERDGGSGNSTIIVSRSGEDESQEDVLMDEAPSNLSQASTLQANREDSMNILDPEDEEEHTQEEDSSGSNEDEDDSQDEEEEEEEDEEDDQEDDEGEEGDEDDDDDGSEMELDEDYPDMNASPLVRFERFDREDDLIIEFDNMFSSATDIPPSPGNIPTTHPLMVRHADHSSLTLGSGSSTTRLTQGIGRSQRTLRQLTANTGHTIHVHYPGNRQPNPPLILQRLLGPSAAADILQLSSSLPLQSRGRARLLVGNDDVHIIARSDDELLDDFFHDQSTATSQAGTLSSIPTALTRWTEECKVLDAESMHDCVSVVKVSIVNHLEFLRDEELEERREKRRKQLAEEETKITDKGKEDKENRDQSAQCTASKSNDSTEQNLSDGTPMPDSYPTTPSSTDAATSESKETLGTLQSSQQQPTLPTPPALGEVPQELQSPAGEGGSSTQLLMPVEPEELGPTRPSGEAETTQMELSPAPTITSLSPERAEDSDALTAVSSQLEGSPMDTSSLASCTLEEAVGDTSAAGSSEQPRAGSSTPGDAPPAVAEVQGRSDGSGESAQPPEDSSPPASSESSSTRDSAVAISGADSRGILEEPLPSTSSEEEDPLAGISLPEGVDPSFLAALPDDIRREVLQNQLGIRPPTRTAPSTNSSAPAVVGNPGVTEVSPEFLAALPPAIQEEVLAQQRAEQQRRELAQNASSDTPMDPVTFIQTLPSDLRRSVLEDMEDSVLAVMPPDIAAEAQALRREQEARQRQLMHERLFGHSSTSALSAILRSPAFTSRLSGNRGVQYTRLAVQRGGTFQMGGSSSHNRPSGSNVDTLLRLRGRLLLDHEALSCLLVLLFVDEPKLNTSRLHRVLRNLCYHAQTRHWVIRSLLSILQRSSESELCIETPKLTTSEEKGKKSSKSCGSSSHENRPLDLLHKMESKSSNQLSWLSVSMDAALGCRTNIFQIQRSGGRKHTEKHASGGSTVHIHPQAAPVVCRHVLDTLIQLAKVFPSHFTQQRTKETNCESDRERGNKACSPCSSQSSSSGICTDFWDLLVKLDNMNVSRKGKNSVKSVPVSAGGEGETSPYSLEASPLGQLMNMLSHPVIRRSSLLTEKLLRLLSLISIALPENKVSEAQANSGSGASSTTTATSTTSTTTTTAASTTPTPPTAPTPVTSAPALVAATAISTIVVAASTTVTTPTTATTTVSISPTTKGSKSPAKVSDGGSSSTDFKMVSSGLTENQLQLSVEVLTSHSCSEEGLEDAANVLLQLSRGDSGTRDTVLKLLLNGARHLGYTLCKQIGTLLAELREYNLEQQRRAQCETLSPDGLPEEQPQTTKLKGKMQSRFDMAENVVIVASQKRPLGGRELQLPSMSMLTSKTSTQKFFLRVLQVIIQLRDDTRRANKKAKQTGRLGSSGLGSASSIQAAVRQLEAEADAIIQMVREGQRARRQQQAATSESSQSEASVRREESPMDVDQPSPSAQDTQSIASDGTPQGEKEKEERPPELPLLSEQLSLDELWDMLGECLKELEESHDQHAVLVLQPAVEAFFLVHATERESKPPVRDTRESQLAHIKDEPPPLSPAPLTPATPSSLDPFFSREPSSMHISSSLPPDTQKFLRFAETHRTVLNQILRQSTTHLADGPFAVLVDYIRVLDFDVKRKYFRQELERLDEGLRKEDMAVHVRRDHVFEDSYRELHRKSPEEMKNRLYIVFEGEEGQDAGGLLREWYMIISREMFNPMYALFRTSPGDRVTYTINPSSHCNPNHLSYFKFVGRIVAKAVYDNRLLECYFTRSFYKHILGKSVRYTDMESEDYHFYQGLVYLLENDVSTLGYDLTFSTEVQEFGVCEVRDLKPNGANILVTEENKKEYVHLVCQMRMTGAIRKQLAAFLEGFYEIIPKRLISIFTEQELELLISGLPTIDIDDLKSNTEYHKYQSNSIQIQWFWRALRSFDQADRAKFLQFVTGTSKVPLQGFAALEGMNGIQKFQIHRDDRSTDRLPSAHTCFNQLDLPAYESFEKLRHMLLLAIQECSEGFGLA

Legend:
FLAG-HAPSTR1 (human) = molecular target: T1, FLAG-HAPSTR1 (human) (UniProt Q14CZ0); assay: co-IP; anti-FLAG magnetic beads, 293T cell lysates (parental or HAPSTR1-HA overexpressing), overnight at 4 °C; lysis buffer 50 mM Tris pH 7.5, 100 mM NaCl, 1% Triton, 0.2 mM EDTA, 5% glycerol; immunoblot
T1 sequence: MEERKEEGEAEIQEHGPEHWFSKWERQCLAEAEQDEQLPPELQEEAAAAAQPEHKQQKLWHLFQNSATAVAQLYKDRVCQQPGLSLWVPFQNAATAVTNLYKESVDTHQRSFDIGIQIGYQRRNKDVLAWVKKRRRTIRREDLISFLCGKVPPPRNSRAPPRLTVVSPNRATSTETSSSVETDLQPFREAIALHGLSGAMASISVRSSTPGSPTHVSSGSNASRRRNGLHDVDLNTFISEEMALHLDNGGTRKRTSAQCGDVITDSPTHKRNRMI

[1] = molecular target: T2, FLAG-tagged HAPSTR2 (human); assay: as above
T2 sequence: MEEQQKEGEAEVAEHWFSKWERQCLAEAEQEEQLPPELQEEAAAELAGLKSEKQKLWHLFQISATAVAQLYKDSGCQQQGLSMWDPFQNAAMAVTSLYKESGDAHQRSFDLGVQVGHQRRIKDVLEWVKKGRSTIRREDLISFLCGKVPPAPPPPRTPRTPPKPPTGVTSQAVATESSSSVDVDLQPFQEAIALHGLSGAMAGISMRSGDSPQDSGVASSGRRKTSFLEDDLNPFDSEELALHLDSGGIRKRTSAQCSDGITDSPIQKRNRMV

[2] = molecular target: T3, FLAG-tagged HAPSTR2 G116R (human); assay: as above
T3 sequence: T2 sequence with G116R

[3] = molecular target: T4, recombinant MBP-HAPSTR1 (human) (UniProt Q14CZ0); assay: pull-down; recombinant MBP-tagged bait on amylose resin; 2.5 mg protein of 293T whole cell lysate, overnight at 4 °C; wash buffer 10 mM Tris-HCl, 200 mM NaCl, 1 mM EDTA, 1 mM DTT, pH 7.5; eluted with 10 mM maltose; immunoblot; only the target purified
T4 sequence: T1 sequence

[4] = molecular target: T5, recombinant maltose-binding protein (MBP)-tagged HAPSTR2 (human); assay: as above
T5 sequence: T2 sequence

B1: endogenous HAPSTR1, long isoform (protein, UniProt Q14CZ0 1-275)
chain: T1 sequence
binding [4]: binds

B2: HAPSTR1-HA (protein, UniProt Q14CZ0 1-275)
chain: T1 sequence
binding [1]: binds

Now from value to molecule:

binding (FLAG-HAPSTR1 (human)): binds
binding [1]: binds
binding [2]: binds
binding [3]: binds
binding [4]: binds
Molecule: HUWE1 (from UniProt Q7Z6Z7 1-4374) (enzyme)

binding [1]: binds
B3: endogenous HAPSTR1 of parental 293T cells (protein, UniProt Q14CZ0 1-275)
chain: T1 sequence
